From PMC11414398
These are yes or no findings as the source states them, for the method shown. In cells and extracts the contact can be indirect. These calls come from enrichment with a bait or labelling near it, and not all partners need be listed.

Protein sequences, listed by entry. Tags and fused reporters are not part of them.
UniProt O95568: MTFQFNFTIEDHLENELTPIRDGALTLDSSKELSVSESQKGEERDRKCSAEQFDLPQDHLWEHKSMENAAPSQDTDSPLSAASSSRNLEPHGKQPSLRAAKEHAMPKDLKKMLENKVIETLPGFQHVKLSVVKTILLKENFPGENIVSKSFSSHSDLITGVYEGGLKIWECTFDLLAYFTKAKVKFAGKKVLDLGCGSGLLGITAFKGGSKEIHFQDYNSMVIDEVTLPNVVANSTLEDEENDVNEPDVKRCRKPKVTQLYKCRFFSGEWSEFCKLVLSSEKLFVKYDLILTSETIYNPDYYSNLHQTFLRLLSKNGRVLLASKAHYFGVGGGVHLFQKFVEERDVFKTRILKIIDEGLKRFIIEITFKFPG

Target: Myc-tagged METTL18 (wild type) (human) (UniProt O95568)
Test: affinity purification with mass spectrometry; anti-Myc immunoprecipitation from whole lysates of Myc- or Myc-METTL18-overexpressing MDA-MB-231 cells; SDS-PAGE, silver staining, bands cut out and analysed by LC-MS/MS

binding: binds
Substance: HSP90AA1 (from UniProt P07900 1-732)
